Measurements reported in PubChem BioAssay AID1508588 (Peter MacCallum Cancer Centre, 2020)
Test: 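Knock-downs boosting vemurafenib effects on melanoma cell growth or lactate release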 (primary screen). Cell system: human WM266.4 melanoma cells (BRAF V600 mutant). Reagent: siRNA pool against human genes, 40 nM. Duration: 96 h from transfection to read-out. Conditions: vemurafenib 300 nM (about IC25), added 48 h after transfection, for 48 h; comparison arm got DMSO vehicle only. Detection: 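Cell gain (DAPI nuclei at end minus before drug, mean of two replicates) and medium lactate by absorbance per cell, both as ratio to non-targeting siRNA, also grouped into fold-change classes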. Scale: cell gain with vemurafenib: higher = more cell gain than with non-targeting siRNA; lactate per cell with vemurafenib: higher = more lactate made per cell. Call rule: 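a knock-down counts as enhancing when its fold-change classes with vehicle and with vemurafenib, taken together, show a stronger drug effect on cell gain or lactate per cell; exact class pairs not stated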. Meaning of the calls: active = enhances vemurafenib effect; inactive = no enhancement seen.
This is an unselected part of about 18,000 reagents. Over the whole deposit, 790 (4.4%) are marked active. 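Calls rest on a combination of fold-change classes in drug and vehicle arms, not all shown here.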 No sequences are given here.

| cell gain with vemurafenib | lactate per cell with vemurafenib | activity call | gene |
| --- | --- | --- | --- |
| 0.5 | 1.17 | inactive | CHAMP1 |
| 0.35 | 1.33 | inactive | TNFRSF1B |
| 0.15 | 0.6 | inactive | PRAMEF6 |
| 0.09 | 2.21 | inactive | ASAH1 |
| 0.72 | 0.52 | inactive | ARF1 |
| 0.99 | 0.38 | inactive | SLC25A13 |
| 0.86 | 0.78 | inactive | ATP5MC2 |
| 0.63 | 0.82 | inactive | NNAT |
| 0.01 | 1.04 | inactive | C2orf66 |
| 0.35 | 1.48 | inactive | PLPPR1 |
| 1.18 | 0.77 | inactive | IHH |
| 0.84 | 0.94 | inactive | GOLGA7B |
| 0.69 | 0.57 | inactive | B3GALNT1 |
| 0.94 | 0.68 | inactive | IGFL1 |
| 0.88 | 1.29 | inactive | CDYL |
| 0.79 | 0.61 | inactive | PATZ1 |
| 0.59 | 0.82 | inactive | CTBS |
| 0.62 | 0.63 | inactive | FRMD4A |
| 0.65 | 0.98 | inactive | AMOTL2 |
| 0.68 | 1.15 | inactive | SLC51A |
| 0.32 | 0.96 | inactive | TMEM219 |
| 1.09 | 0.46 | inactive | SPO11 |
| 0.96 | 0.73 | inactive | TASL |
| 0.29 | 0.3 | inactive | ERICH6 |
| 0.5 | 1.02 | inactive | ARHGEF4 |
| 0.32 | 0.9 | inactive | ZCCHC14 |
| 0.44 | 0.9 | inactive | RELB |
| 0.31 | 1.4 | inactive | MYO1F |
| 0.95 | 0.76 | inactive | STAT1 |
| 0.58 | 1.16 | inactive | MCM8 |
| 0.63 | 1.53 | inactive | COPS2 |
| 0.64 | 0.79 | inactive | TNFRSF25 |
| 0.39 | 1.56 | inactive | GPR34 |
| 0.67 | 0.48 | active | UQCRB |
| 0.82 | 0.27 | inactive | ZNF596 |
| 0.57 | 1.23 | inactive | TBPL1 |
| 0.72 | 1 | inactive | PNPLA8 |
| 0.67 | 0.81 | inactive | ARL3 |
| 0.43 | 0.24 | active | RTTN |
| 0.57 | 1.48 | inactive | MYOM1 |
| 0.88 | 0.7 | active | NTAN1 |
| 0.68 | 0.82 | inactive | FOXN3 |
| 0.04 | 1.71 | inactive | DCAF1 |
| 0.48 | 0.76 | inactive | USF3 |
| 0.16 | 1.05 | inactive | FOXS1 |
| 1.26 | 0.5 | inactive | DPM1 |
| 1.16 | 0.97 | inactive | PRAMEF8 |
| 1.15 | 1.18 | inactive | WASH5P |
| 0.7 | 0.82 | inactive | CYP4F11 |
| 0.75 | 1.31 | inactive | COMTD1 |
| 0.74 | 0.84 | inactive | SCGB2B2 |
| 0.51 | 1.5 | inactive | DNAJC15 |
| 0.78 | 0.61 | inactive | RASL11B |
| 0.81 | 0.29 | inactive | NUDT4 |
| 0.98 | 1.06 | inactive | IGF2-AS |
| -0.05 | 1.64 | inactive | HIRIP3 |
| 0.45 | 2.23 | inactive | DOK1 |
| 0.41 | 1.52 | inactive | CCR8 |
| 0.23 | 1.68 | inactive | BCR |
| -0.22 | 4.05 | inactive | PSMC1 |
| 1.29 | 0.84 | inactive | OR2W5 |
| 0.42 | 0.52 | inactive | AGFG2 |
| 0.37 | 1.59 | inactive | CPQ |

Next part (15 carried over from the part before).
| cell gain with vemurafenib | lactate per cell with vemurafenib | activity call | gene |
| --- | --- | --- | --- |
| 0.7 | 0.82 | inactive | CYP4F11 |
| 0.75 | 1.31 | inactive | COMTD1 |
| 0.74 | 0.84 | inactive | SCGB2B2 |
| 0.51 | 1.5 | inactive | DNAJC15 |
| 0.78 | 0.61 | inactive | RASL11B |
| 0.81 | 0.29 | inactive | NUDT4 |
| 0.98 | 1.06 | inactive | IGF2-AS |
| -0.05 | 1.64 | inactive | HIRIP3 |
| 0.45 | 2.23 | inactive | DOK1 |
| 0.41 | 1.52 | inactive | CCR8 |
| 0.23 | 1.68 | inactive | BCR |
| -0.22 | 4.05 | inactive | PSMC1 |
| 1.29 | 0.84 | inactive | OR2W5 |
| 0.42 | 0.52 | inactive | AGFG2 |
| 0.37 | 1.59 | inactive | CPQ |
| 0.05 | 0.86 | inactive | SLC8B1 |
| 0.69 | 0.74 | inactive | KCNK13 |
| 0.31 | 3.37 | inactive | USB1 |
| 0.48 | 0.67 | inactive | THAP9 |
| 0.47 | 1.93 | inactive | SPHKAP |
| 0.35 | 0.8 | inactive | CYP2S1 |
| 0.53 | 0.7 | inactive | OR2T11 |
| 0.35 | 0.57 | active | TEX13A |
| 0.75 | 0.5 | inactive | DIAPH2 |
| 0.03 | 0.62 | inactive | RSL24D1 |
| 0.2 | 1.12 | inactive | C11orf65 |
| 0.75 | 0.65 | inactive | CNKSR3 |
| 0.59 | 1.62 | inactive | SERTAD1 |
| 0.98 | 0.44 | active | ZMYM5 |
| 0.51 | 0.86 | inactive | TSNARE1 |
| 0.91 | 0.85 | inactive | KYAT1 |
| 0.75 | 0.54 | inactive | SERTAD2 |
| -0.09 | 0.88 | inactive | CA10 |
| 0.79 | 0.4 | active | PLXNA2 |
| 0.89 | 0.62 | inactive | DRICH1 |
| 0.66 | 0.48 | active | SERPINB13 |
| 0.54 | 0.84 | inactive | RGS16 |
| 0.55 | 1.18 | inactive | SPIRE1 |
| 0.75 | 0.67 | inactive | SH2D1B |
| 0.45 | 0.91 | inactive | ALPK2 |
| 0.59 | 0.38 | inactive | RGS13 |
| 1.14 | 0.84 | inactive | RNF26 |
| 0.8 | 0.46 | inactive | ZFP90 |
| 0.84 | 0.96 | inactive | PTPN13 |
| 0.06 | 0.34 | active | SPCS1 |
| 0.96 | 0.62 | inactive | CORIN |
| 0.87 | 0.98 | inactive | LIPA |
| 0.79 | 0.86 | inactive | LRIF1 |
| 0.83 | 0.94 | inactive | MISP |
| 0.69 | 0.94 | inactive | PHKA2 |
| 0.5 | 1.09 | inactive | SIAH1 |
| 0.97 | 0.36 | inactive | PAQR5 |
| 0.13 | 0.97 | inactive | MYO9B |
| 0.64 | 0.54 | inactive | PGGT1B |
| 0.95 | 0.98 | inactive | ZNF816 |
| 0.54 | 0.6 | inactive | CARD10 |
| 0.61 | 0.82 | inactive | SLC39A12 |
| 0.38 | 1.06 | inactive | ZMAT5 |
| 0.33 | 0.98 | inactive | ZBTB16 |
